According to article PMC5356007, “A conserved inter-domain communication mechanism regulates the ATPase activity of the AAA-protein Drg1” (Scientific Reports, 2017):
No constants are given. Whether binding was seen depends on the method and setting. Some binding calls cover weakened binding; strength is not graded here.

By UniProt entry, the sequences of proteins in these tests, tags left out.
UniProt Q07915: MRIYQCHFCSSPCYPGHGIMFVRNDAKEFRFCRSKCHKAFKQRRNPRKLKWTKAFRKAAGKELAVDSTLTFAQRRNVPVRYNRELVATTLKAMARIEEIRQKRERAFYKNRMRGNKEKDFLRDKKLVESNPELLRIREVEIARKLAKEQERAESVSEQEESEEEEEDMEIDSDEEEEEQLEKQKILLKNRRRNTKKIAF

T1: Arx1-TAP (shuttling pre-60S maturation factor Arx1, bait of the tandem affinity purification) (S. cerevisiae (endogenous in the yeast strains)) (UniProt Q03862)
T1 sequence: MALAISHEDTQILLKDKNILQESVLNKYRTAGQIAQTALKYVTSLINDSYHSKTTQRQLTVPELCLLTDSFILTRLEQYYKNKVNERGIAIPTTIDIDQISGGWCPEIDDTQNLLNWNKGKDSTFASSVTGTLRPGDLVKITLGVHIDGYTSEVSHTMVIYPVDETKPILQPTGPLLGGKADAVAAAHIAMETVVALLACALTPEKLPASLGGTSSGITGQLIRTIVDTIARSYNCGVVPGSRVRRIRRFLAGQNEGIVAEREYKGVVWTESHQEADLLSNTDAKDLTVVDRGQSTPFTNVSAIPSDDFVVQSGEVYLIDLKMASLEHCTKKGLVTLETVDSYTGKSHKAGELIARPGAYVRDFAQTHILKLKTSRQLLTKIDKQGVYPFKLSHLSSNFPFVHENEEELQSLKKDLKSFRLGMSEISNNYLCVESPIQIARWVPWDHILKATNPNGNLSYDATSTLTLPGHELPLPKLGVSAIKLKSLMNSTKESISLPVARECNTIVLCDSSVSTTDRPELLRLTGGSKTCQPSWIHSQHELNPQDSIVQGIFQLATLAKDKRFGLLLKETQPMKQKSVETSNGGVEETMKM

B1: Nog1 (protein, UniProt Q02892 1-647)
chain: MQLSWKDIPTVAPANDLLDIVLNRTQRKTPTVIRPGFKITRIRAFYMRKVKYTGEGFVEKFEDILKGFPNINDVHPFHRDLMDTLYEKNHYKISLAAISRAKSLVEQVARDYVRLLKFGQSLFQCKQLKRAALGRMATIVKKLRDPLAYLEQVRQHIGRLPSIDPNTRTLLICGYPNVGKSSFLRCITKSDVDVQPYAFTTKSLYVGHFDYKYLRFQAIDTPGILDRPTEEMNNIEMQSIYAIAHLRSCVLYFMDLSEQCGFTIEAQVKLFHSIKPLFANKSVMVVINKTDIIRPEDLDEERAQLLESVKEVPGVEIMTSSCQLEENVMEVRNKACEKLLASRIENKLKSQSRINNVLNKIHVAQPQARDDVKRTPFIPESVKNLKKYDPEDPNRRKLARDIEAENGGAGVFNVNLKDKYLLEDDEWKNDIMPEILDGKNVYDFLDPEIAAKLQALEEEEEKLENEGFYNSDDEEEIYDGFEASEVDDIKEKAAWIRNRQKTMIAEARNRKSLKNKAIMPRSKLTKSFGKMEEHMSTLGHDMSALQDKQNRAARKNRYVERGSDVVFGDQDALTASTENGVKLRQTDRLLDGVADGSMRSKADRMAKMERRERNRHAKQGESDRHNAVSLSKHLFSGKRGVGKTDFR
B2: Mex67 (protein, UniProt Q99257 1-599)
chain: MSGFHNVGNINMMAQQQMQQNRIKISVRNWQNATMNDLINFISRNARVAVYDAHVEGPLVIGYVNSKAEAESLMKWNGVRFAGSNLKFELLDNNGASAGTSDTISFLRGVLLKRYDPQTKLLNLGALHSDPELIQKGVFSSISTQSKMFPAMMKLASTEKSLIVESVNLADNQLKDISAISTLAQTFPNLKNLCLANNQIFRFRSLEVWKNKFKDLRELLMTNNPITTDKLYRTEMLRLFPKLVVLDNVIVRDEQKLQTVYSLPMKIQQFFFENDALGQSSTDFATNFLNLWDNNREQLLNLYSPQSQFSVSVDSTIPPSTVTDSDQTPAFGYYMSSSRNISKVSSEKSIQQRLSIGQESINSIFKTLPKTKHHLQEQPNEYSMETISYPQINGFVITLHGFFEETGKPELESNKKTGKNNYQKNRRYNHGYNSTSNNKLSKKSFDRTWVIVPMNNSVIIASDLLTVRAYSTGAWKTASIAIAQPPQQQASVLPQVASMNPNITTPPQPQPSVVPGGMSIPGAPQGAMVMAPTLQLPPDVQSRLNPVQLELLNKLHLETKLNAEYTFMLAEQSNWNYEVAIKGFQSSMNGIPREAFVQF
B3: Mtr2 (protein, UniProt P34232 1-184)
chain: MNTNSNTMVMNDANQAQITATFTKKILAHLDDPDSNKLAQFVQLFNPNNCRIIFNATPFAQATVFLQMWQNQVVQTQHALTGVDYHAIPGSGTLICNVNCKVRFDESGRDKMGQDATVPIQPNNTGNRNRPNDMNKPRPLWGPYFGISLQLIIDDRIFRNDFNGVISGFNYNMVYKPEDSLLKI
B4: Sqt1 (protein, UniProt P35184 1-431)
chain: MEPQEEFITTEEVEQEIVPTVEVEQDVPVDIEGENDDDDEMMNDDEEALEVDMSNNSLTYFDKHTDSVFAIGHHPNLPLVCTGGGDNLAHLWTSHSQPPKFAGTLTGYGESVISCSFTSEGGFLVTADMSGKVLVHMGQKGGAQWKLASQMQEVEEIVWLKTHPTIARTFAFGATDGSVWCYQINEQDGSLEQLMSGFVHQQDCSMGEFINTDKGENTLELVTCSLDSTIVAWNCFTGQQLFKITQAEIKGLEAPWISLSLAPETLTKGNSGVVACGSNNGLLAVINCNNGGAILHLSTVIELKPEQDELDASIESISWSSKFSLMAIGLVCGEILLYDTSAWRVRHKFVLEDSVTKLMFDNDDLFASCINGKVYQFNARTGQEKFVCVGHNMGVLDFILLHPVANTGTEQKRKVITAGDEGVSLVFEVPN
B5: Rpl10 (protein, UniProt P41805 1-221)
chain: MARRPARCYRYQKNKPYPKSRYNRAVPDSKIRIYDLGKKKATVDEFPLCVHLVSNELEQLSSEALEAARICANKYMTTVSGRDAFHLRVRVHPFHVLRINKMLSCAGADRLQQGMRGAWGKPHGLAARVDIGQIIFSVRTKDSNKDVVVEGLRRARYKFPGQQKIILSKKWGFTNLDRPEYLKKREAGEVKDDGAFVKFLSKKGSLENNIREFPEYFAAQA

The molecules below were run against T1, Arx1-TAP (shuttling pre-60S maturation factor Arx1, bait of the tandem affinity purification) (S. cerevisiae (endogenous in the yeast strains)) (assay: tandem affinity purification (TAP) with western blotting; Arx1-TAP as bait; pre-60S particles purified from DRG1 wildtype strains with plasmids for overexpression of GST-Drg1 or GST-Drg1-21 (CUP1 promoter, 0.5 mM CuSO4, 3 hours) or the empty vector; SDS-PAGE and western blot).

Row | Molecule | binding
1 | B1 | binds
2 | B2 | binds

What follows are molecules tested against T1, Arx1-TAP (shuttling pre-60S maturation factor Arx1, bait of the tandem affinity purification) (S. cerevisiae (endogenous in the yeast strains)) (assay: tandem affinity purification (TAP) with western blotting; Arx1-TAP as bait; pre-60S particles purified from strains expressing drg1-21, drg1-18 or wildtype DRG1 from their endogenous promoter; cells grown in YPD; elution from calmodulin beads, TCA precipitation, SDS-PAGE and western blot).

Row | Molecule | binding
3 | Rlp24 (Ribosomal-like protein 24) (from UniProt Q07915 1-199) | binds
4 | B1 | binds
5 | B2 | binds
6 | B3 | binds
7 | B4 | binds
8 | B5 | binds
